No constants are given. Whether binding was seen depends on the method and setting. Binding seen in cells or lysates may run through a third protein. Some binding calls cover weakened binding; strength is not graded here.

Amino acid sequences for entries named in this document (tags omitted).
UniProt F6VAN0: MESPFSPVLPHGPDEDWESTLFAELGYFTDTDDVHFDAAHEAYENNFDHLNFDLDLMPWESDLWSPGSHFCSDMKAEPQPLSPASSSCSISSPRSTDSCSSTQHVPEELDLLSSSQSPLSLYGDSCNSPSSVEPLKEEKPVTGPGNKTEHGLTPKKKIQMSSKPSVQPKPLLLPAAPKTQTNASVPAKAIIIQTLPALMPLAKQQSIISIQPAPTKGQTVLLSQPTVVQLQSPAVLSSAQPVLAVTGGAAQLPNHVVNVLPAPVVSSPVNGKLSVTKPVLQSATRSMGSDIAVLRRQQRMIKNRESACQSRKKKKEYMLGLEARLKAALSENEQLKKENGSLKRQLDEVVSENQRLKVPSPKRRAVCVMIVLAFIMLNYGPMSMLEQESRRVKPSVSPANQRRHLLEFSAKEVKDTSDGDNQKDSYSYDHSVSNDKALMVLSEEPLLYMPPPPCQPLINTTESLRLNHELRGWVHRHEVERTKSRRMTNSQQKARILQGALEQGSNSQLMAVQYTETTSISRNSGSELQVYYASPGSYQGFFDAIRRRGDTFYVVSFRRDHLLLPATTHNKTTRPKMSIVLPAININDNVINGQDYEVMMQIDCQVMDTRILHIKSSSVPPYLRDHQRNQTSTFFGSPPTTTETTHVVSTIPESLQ

Test [1] concerns the target activating transcription factor 6α (mouse (endogenous in AML12)) (UniProt F6VAN0). The test is described as follows: co-IP; AML12 cells treated with DMSO or Tm (5 µg/ml) for 12 h, immunoprecipitation with the indicated antibodies and western blot; antibodies at 1:200 for immunoprecipitation.
Test [2] concerns the target T1, Orphan nuclear receptor ERRγ (mouse (endogenous in AML12)) (UniProt P62509).
T1 sequence: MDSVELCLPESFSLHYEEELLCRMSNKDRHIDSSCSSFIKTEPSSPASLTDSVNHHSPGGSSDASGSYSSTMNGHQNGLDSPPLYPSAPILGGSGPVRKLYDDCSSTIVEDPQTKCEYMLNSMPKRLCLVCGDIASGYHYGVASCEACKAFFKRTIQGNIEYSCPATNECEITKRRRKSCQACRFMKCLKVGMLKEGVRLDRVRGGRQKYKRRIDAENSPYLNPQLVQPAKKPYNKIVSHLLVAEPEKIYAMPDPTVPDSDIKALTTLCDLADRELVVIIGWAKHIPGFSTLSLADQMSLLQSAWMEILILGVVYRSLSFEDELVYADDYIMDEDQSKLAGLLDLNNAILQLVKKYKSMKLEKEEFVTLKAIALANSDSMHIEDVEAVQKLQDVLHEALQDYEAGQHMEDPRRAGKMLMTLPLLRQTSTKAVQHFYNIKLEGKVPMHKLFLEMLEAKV
Described as above.

B1: peroxisome proliferator-activated receptor gamma coactivator 1-α (protein, UniProt O70343 1-797)
chain: MAWDMCSQDSVWSDIECAALVGEDQPLCPDLPELDLSELDVNDLDTDSFLGGLKWCSDQSEIISNQYNNEPANIFEKIDEENEANLLAVLTETLDSLPVDEDGLPSFDALTDGAVTTDNEASPSSMPDGTPPPQEAEEPSLLKKLLLAPANTQLSYNECSGLSTQNHAANHTHRIRTNPAIVKTENSWSNKAKSICQQQKPQRRPCSELLKYLTTNDDPPHTKPTENRNSSRDKCASKKKSHTQPQSQHAQAKPTTLSLPLTPESPNDPKGSPFENKTIERTLSVELSGTAGLTPPTTPPHKANQDNPFKASPKLKPSCKTVVPPPTKRARYSECSGTQGSHSTKKGPEQSELYAQLSKSSGLSRGHEERKTKRPSLRLFGDHDYCQSLNSKTDILINISQELQDSRQLDFKDASCDWQGHICSSTDSGQCYLRETLEASKQVSPCSTRKQLQDQEIRAELNKHFGHPCQAVFDDKSDKTSELRDGDFSNEQFSKLPVFINSGLAMDGLFDDSEDESDKLSYPWDGTQPYSLFDVSPSCSSFNSPCRDSVSPPKSLFSQRPQRMRSRSRSFSRHRSCSRSPYSRSRSRSPGSRSSSRSCYYYESSHYRHRTHRNSPLYVRSRSRSPYSRRPRYDSYEAYEHERLKRDEYRKEHEKRESERAKQRERQKQKAIEERRVIYVGKIRPDTTRTELRDRFEVFGEIEECTVNLRDDGDSYGFITYRYTCDAFAALENGYTLRRSNETDFELYFCGRKQFFKSNYADLDTNSDDFDPASTKSKYDSLDFDSLLKEAQRSLRR
For B1, the binding result in test [1] and in test [2] was “binds” each time.

The values are drawn from paper PMC3737538.
